Consider 43 molecules from PubChem BioAssay AID2685 (National Center for Advancing Translational Sciences (NCATS), 2010).

By AC50 is commonly meant the concentration at which the activity in the assay is half-maximal.

SMILES strings stand for the structures. Some of the results follow. The main result of the screen is listed elsewhere. These columns were measured beside it and carry no call. Compounds called inactive in the main read-out are mostly missing here. Words in brackets tell the shape of the fitted curve; partial curves, single points and poor fits give uncertain potencies.

This experiment can be described thus: qHTS Assay for Lipid Storage Modulators in Drosophila S3 Cells.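 For cell number change: cells counted by Cell Tracker Red CMTPX staining in the red channel.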 The note with it: BODIPY lipid droplet fluorescence, 18-24 h; for cell number change: measured here: cell count max response, cells fed with added oleic acid. In a few lines: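 Drosophila S3 cells loaded with oleic acid (400 uM, as added) and compounds at several concentrations; lipid droplets imaged by 488-nm laser-scanning cytometry, 500–530 nm intensity and object ratio to cell channel. Percent activity normalized to 20 uM Triacsin C.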
A general note: qHTS replaces the single test concentration by a dilution series.

[1] abbreviates: measured here: lipid fluorescence (Fed channel) AC50, cells fed with added oleic acid.
The mark [2] stands for this setting: measured here: cell number channel AC50, cells fed with added oleic acid.

For `O=C(O)c1ccc(NC2=C(n3nnc4ccccc43)C(=O)c3ccccc3C2=O)cc1`, the cell number change was -13%. Further, the AC50 under setting [1] was 29.1 µM [falling, single point].

Turning to `Oc1ccc(Cl)cc1CNCC1CCCO1` (stereo not given), the cell number change was -13.7%. Under setting [1], the half-maximal activity concentration (AC50) was 0.00651 µM [falling, full curve, poor fit].

`COc1ccccc1N1CCN(C(=O)CSc2nnc(-c3ccoc3C)o2)CC1`: the cell number change was -1.42%.

On to `CC1Cc2ccccc2N1c1ncnc2c1nnn2Cc1ccccc1Cl` (stereo not given), for which the cell number change was determined as 24.3%. Further, the AC50 under setting [1] was 9.2 µM [rising, partial curve].

For the molecule `CCOC(=O)c1sc(C)c2c1NC(c1ccc(Cl)cc1)NC2=O` (stereo not given), the cell number change was -29.4%. The AC50 under setting [1] is 0.731 µM [rising, full curve, poor fit].

As for `Cc1cc(N2CCN(C(=O)Nc3ccccc3C#N)CC2)c2ccccc2n1`, the cell number change worked out at 0.824%.

In the case of `CCc1cccc2c1NC(=O)C2(O)N1CCCC(C)C1` (stereo not given), the cell number change is -1.17%.

For the molecule `CCOC(=O)c1ccc(NC(=S)NC2CCCC2)cc1`, the cell number change is -8.52%.

Take `COC(=O)c1ccc(NC(=O)COC(=O)CCC2CCCC2)cc1`: the cell number change was -2.14%. For the same molecule, under setting [1], the AC50 is 0.291 µM [rising, full curve, poor fit].

On to `COc1cc(OC)cc(C(=O)Nc2ccc([N+](=O)[O-])cn2)c1`, for which the cell number change is -10.4%. The AC50 under setting [1] was 29.1 µM [rising, single point].

For the molecule `CC(C)(C)c1ccc(S(=O)(=O)N2CCN(CC(=O)N3CC(=O)Nc4ccccc43)CC2)cc1`, the cell number change was 9.59%. In addition, the AC50 under setting [2] is 0.731 µM [falling, single point].

For `CCOC(=O)N1CCN(S(=O)(=O)c2cc(OCC)ccc2OCC)CC1`, the cell number change stood at 7.83%.

As to `COc1cc(CNc2ccc3[nH]c(=O)[nH]c3c2)ccc1OCc1ccc(Cl)cc1`, the cell number change is -11.8%. Further, under setting [1], the AC50 is 23.1 µM [falling, single point].

Turning to `COc1ccccc1NC(=O)CSc1nnc(NC(=O)c2ccco2)s1`, the cell number change was 31.3%. In addition, the AC50 under setting [2] is 18.4 µM [rising, single point]. Under setting [1], the AC50 is 14.6 µM [rising, single point].

As to `CC(C)Nc1nnc(SCC(=O)NCc2ccc3c(c2)OCO3)s1`, the cell number change came out at 58.3%. Besides, under setting [2], the AC50 is 0.82 µM [rising, full curve, poor fit].

For the molecule `Nc1cc(=O)[nH]c(SCC(=O)Nc2cccnc2Cl)n1`, the cell number change came to 23.8%. The AC50 under setting [1] is 0.206 µM [falling, single point].

With `COc1cccc(CSc2nc3ccccc3cc2C=O)c1`, the cell number change is -45.7%. Under setting [2], the AC50 is 0.0411 µM [falling, partial curve, poor fit].

For `C/C(=C\c1ccccc1)C(=O)Nc1ccc(S(=O)(=O)Nc2ncccn2)cc1`, the cell number change is -2.49%. Under setting [2], the AC50 is 4.61 µM [falling, single point]. The AC50 under setting [1] is 4.61 µM [falling, partial curve].

Take `CC(C)c1cc(CNC(=O)CCc2nnc(CCCCc3ccccc3)o2)on1`: the cell number change was -18.2%. Besides, the AC50 under setting [1] was 0.0058 µM [falling, full curve, poor fit].

As for `CCOCCCNCc1ccc(OC)cc1`, the cell number change is -35.8%. Also, under setting [2], the AC50 is 2.31 µM [falling, full curve]. Besides, the AC50 under setting [1] is 18.4 µM [falling, partial curve].

In the case of `CN(C)S(=O)(=O)c1ccc(NC(=O)N2CCOCC2)cc1`, the cell number change was -19.7%. For the same molecule, the AC50 under setting [1] is 29.1 µM [falling, single point].

For `O=C(Cc1ccccc1)Nc1cc(Cl)ccc1Sc1ccccc1`, the cell number change is 22.3%. For the same molecule, the AC50 under setting [1] was 20.6 µM [rising, partial curve].

With `COCCn1c(=S)[nH]c2cc(C(=O)NCCc3ccc(OC)c(OC)c3)ccc2c1=O`, the cell number change stood at 24.4%.

As for `COC(=O)c1cn(C(=O)c2cc(OC)cc(OC)c2)c2ccccc12`, the cell number change amounted to 6.76%.

On to `CCOC(=O)c1ccc(NC(=O)CN2C(=O)CSC(C)C2=O)cc1` (stereo not given), for which the cell number change was determined as 5.14%. Besides, the AC50 under setting [1] is 16.4 µM [rising, partial curve, poor fit].

Turning to `Nc1ccc(Nc2nc3ccccc3[nH]2)cc1`, the cell number change is -45.8%. Moreover, the AC50 under setting [2] is 16.4 µM [falling, single point].

In the case of `CS(=O)(=O)N(CC(=O)O)Cc1cccc(CN(CC(=O)O)S(C)(=O)=O)c1`, the cell number change was 0.299%. Also, the AC50 under setting [1] was 32.6 µM [falling, single point].

For the molecule `CCC1CCC(C(=O)NC(C(=O)NCCN2CCOCC2)C(C)C)CC1` (stereo not given), the cell number change came to 21.6%.

On to `CCOc1ccccc1CNC(=O)C1CCCN(c2ncnc3c2nc2n3CCCCC2)C1` (stereo not given), for which the cell number change stood at 58.8%. In addition, the AC50 under setting [1] was 29.1 µM [falling, partial curve].

With `CCOc1ccc2nc(N(Cc3ccccc3)C(=O)CCNC(C)=O)sc2c1`, the cell number change was -12.7%. Also, the AC50 under setting [1] is 3.66 µM [rising, single point].

On to `COc1cccc2cc(-c3ccnc(N)n3)oc12`, for which the AC50 is, setting by setting: under setting [2], 6.51 µM [rising, partial curve, poor fit]; under setting [1], 6.51 µM [rising, partial curve, poor fit].

Regarding `CC(C)(C)C(=O)NC(=S)Nc1ccccc1C(N)=O`, the cell number change amounted to 7.86%. Moreover, under setting [1], the AC50 is 20.6 µM [rising, single point].

Regarding `CCOC(=O)c1sc2nc(C)nc(NCc3ccc(F)cc3)c2c1C`, the AC50 under setting [1] was 3.16 µM [rising, partial curve].

As for `Cc1cc(F)ccc1S(=O)(=O)Nc1ccccc1C(=O)Nc1ncn[nH]1`, the cell number change is 2.73%. For the same molecule, the AC50 under setting [1] is 6.51 µM [rising, single point].

For the molecule `Cc1ccc(NS(=O)(=O)c2cc3[nH]c(=O)c(=O)[nH]c3cc2C)c(C)c1`, the cell number change is 2.88%.

For `Cc1ccc(NCc2nnc(SCCN3CCCCC3)n2CC2CCCO2)cc1Cl` (stereo not given), the cell number change was found to be 15.4%. Besides, the AC50 under setting [1] is 0.13 µM [falling, full curve, poor fit].

Take `Cc1cc(=O)[nH]c(N/N=C/c2c(C)oc3ccccc23)n1`: the cell number change is -1.5%. For the same molecule, under setting [1], the AC50 was 0.461 µM [rising, full curve].

Regarding `COc1cc2c(cc1NC(=O)c1cccc(Br)c1)CCCC2`, the cell number change is -16.9%.

For `C(=Nc1cccc2c(N=Cc3ccco3)cccc12)c1ccco1`, the cell number change was 23.6%. For the same molecule, the AC50 under setting [2] was 1.84 µM [rising, partial curve].

On to `COc1ccc(CC(=O)NC2=NCCS2)cc1`, for which the AC50 under setting [1] is 29.1 µM [rising, single point].

Take `CC(C)OP(=O)(c1ccc(N(C)C)cc1)C(O)c1ccccc1` (stereo not given): the cell number change is -15.6%.

As for `Cc1ccccc1Nc1nnc(SCC(=O)c2cc3ccccc3o2)s1`, under setting [1], the AC50 was 1.46 µM [rising, partial curve].

Take `CCCC(C)NC(=O)c1ccccc1SC` (stereo not given): the cell number change was -11.8%. Also, under setting [1], the AC50 was 0.259 µM [falling, full curve, poor fit].
